Measured values as given in publication PMC10664913.

Biological target: His-GST-CsNOSIP (GST tagged rCsNOSIP) (Clonorchis sinensis)
Test: pull-down; 50 ug purified GST-rCsNOSIP (or purified GST) immobilised on GST affinity beads, incubated with cells lysate containing Flag-ASPSCR-1 or Flag-Sirt 5, room temperature 2 h, washed with PBS, eluted with 10 mM GSH; blots with anti-GST and anti-Flag; only the target purified

B1: Flag-ASPSCR-1 (alveolar soft part sarcoma chromosomal region candidate gene 1 protein) (protein, UniProt Q9BZE9 1-553)
chain: MAAPAGGGGSAVSVLAPNGRRHTVKVTPSTVLLQVLEDTCRRQDFNPCEYDLKFQRSVLDLSLQWRFANLPNNAKLEMVPASRSREGPENMVRIALQLDDGSRLQDSFCSGQTLWELLSHFPQIRECLQHPGGATPVCVYTRDEVTGEAALRGTTLQSLGLTGGSATIRFVMKCYDPVGKTPGSLGSSASAGQAAASAPLPLESGELSRGDLSRPEDADTSGPCCEHTQEKQSTRAPAAAPFVPFSGGGQRLGGPPGPTRPLTSSSAKLPKSLSSPGGPSKPKKSKSGQDPQQEQEQERERDPQQEQERERPVDREPVDREPVVCHPDLEERLQAWPAELPDEFFELTVDDVRRRLAQLKSERKRLEEAPLVTKAFREAQIKEKLERYPKVALRVLFPDRYVLQGFFRPSETVGDLRDFVRSHLGNPELSFYLFITPPKTVLDDHTQTLFQANLFPAALVHLGAEEPAGVYLEPGLLEHAISPSAADVLVARYMSRAAGSPSPLPAPDPAPKSEPAAEEGALVPPEPIPGTAQPVKRSLGKVPKWLKLPASKR
binding: binds

Results are given in words; binding and its absence hold for the method and conditions named. Binding seen in cells or lysates may run through a third protein. A result given as binding can be weak or reduced; the word gives no strength. Where a sequence is shown, tags or fusion partners need not be part of it.
